This is an account of results in paper PMC7862700.

Protein sequences, listed by entry. Tags and fused reporters are not part of them. Lines headed by an entry give the natural chain unless they say otherwise; changes in a name come on top.
UniProt Q9Y603: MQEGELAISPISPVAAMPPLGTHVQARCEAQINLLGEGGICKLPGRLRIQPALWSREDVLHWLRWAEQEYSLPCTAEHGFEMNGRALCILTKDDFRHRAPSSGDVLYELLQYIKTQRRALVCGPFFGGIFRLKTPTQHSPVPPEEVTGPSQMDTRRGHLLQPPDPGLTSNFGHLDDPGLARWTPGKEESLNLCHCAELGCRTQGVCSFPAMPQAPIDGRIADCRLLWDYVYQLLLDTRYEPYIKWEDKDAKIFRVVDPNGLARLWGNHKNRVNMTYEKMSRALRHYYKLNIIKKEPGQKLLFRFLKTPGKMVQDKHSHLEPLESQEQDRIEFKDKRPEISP
UniProt P41212: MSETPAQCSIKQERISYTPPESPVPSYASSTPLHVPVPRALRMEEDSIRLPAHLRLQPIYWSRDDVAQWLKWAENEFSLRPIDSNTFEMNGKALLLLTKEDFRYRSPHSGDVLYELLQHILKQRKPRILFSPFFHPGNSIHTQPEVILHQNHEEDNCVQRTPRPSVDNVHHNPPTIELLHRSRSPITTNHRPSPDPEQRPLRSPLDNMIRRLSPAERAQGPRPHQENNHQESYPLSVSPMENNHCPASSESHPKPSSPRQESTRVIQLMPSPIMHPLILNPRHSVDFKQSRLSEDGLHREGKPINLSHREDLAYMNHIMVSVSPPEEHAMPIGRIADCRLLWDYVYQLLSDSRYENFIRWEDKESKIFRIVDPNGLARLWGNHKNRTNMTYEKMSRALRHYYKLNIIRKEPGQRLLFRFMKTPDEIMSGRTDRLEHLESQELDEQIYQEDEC

The entries are a selection whose mix differs from that of the whole data set. At the low end of the ranking the order means little.

Common to all, as to test: DAPPL (digital affinity profiling via proximity ligation, sequencing)
What all share (conditions): 10 mM Tris-HCl pH 7.5, 50 mM NaCl, 1 mM DTT, 4% glycerol, room temperature, 30 min; GST-TFs on glutathione beads, 16-mer random dsDNA library, 0.1% …; high values mean tight binding; double strand, one strand shown; scale: fold enrichment (6-mer frequency, TF over GST control)

The target in experiment [1] is T1, ELF3 (UniProt P78545).
T1 sequence: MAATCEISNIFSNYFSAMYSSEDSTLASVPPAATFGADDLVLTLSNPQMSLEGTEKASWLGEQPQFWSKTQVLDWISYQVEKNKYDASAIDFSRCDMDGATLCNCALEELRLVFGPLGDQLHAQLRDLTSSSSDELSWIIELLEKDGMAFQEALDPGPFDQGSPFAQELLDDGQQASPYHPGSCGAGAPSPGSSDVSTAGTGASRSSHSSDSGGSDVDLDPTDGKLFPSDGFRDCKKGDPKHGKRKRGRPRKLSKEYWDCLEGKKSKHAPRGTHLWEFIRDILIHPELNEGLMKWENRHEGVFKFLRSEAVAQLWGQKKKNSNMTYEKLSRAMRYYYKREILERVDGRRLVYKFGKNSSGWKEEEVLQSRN

The target of experiment [2] is ETV7 (UniProt Q9Y603).
In experiment [3] the target is ETV6 (UniProt P41212).

In the case of TTAGAG, the binding signal in experiment [1] turned out to be 0.929; in experiment [2], 0.927; in experiment [3] it was 0.84.
For AGCAGA, in that order: 0.927, 0.962 and 0.917.
Consider CGAGTA, for which the binding signal in experiment [1] was 0.9; in experiment [2], 0.862; in experiment [3] it was 0.83.
For GATAGT, the values for the binding signal in experiment [1], in experiment [2] and in experiment [3] were 0.794, 0.869 and 0.873, respectively.
As for ATTCAC, the binding signal in experiment [1] stood at 1.27; in experiment [2], 1.24; in experiment [3], 1.17.
GTATGT: the binding signal in experiment [1] is 0.953; in experiment [2], 0.961; in experiment [3], 0.932.
As to GCAAGC, the binding signal in experiment [1] was determined as 0.917; in experiment [2] it was 0.843; in experiment [3], 0.918.
With TGAACG, the binding signal in experiment [1] is 1.16; in experiment [2] it was 0.895; in experiment [3], 0.91.
On to CATAGA, for which the binding signal turned out to be 0.892 in experiment [1], 0.95 in experiment [2] and 0.933 in experiment [3].
For GACCGA, the binding signal in experiment [1] is 0.765; in experiment [2], 0.774; in experiment [3], 0.851.
On to TCGCGT, for which the binding signal worked out at 0.905 in experiment [1], 0.997 in experiment [2] and 0.938 in experiment [3].
Turning to TCGAAA, the binding signal in experiment [1] worked out at 0.921; in experiment [2] it was 1.05; in experiment [3], 0.901.
Turning to TGATAG, the binding signal in experiment [1] came out at 0.918; in experiment [2] it was 0.999; in experiment [3] it was 0.994.
For the sequence GAAGCC, the binding signal was 0.836 in experiment [1], 1.12 in experiment [2] and 1.09 in experiment [3].
GATCAC: the binding signal in experiment [1] stood at 1.04; in experiment [2], 0.977; in experiment [3] it was 0.918.
On to GATCGA, for which the binding signal in experiment [1] is 0.82; in experiment [2], 0.822; in experiment [3], 0.87.
Turning to GCCCAT, the binding signal in experiment [1] was found to be 0.987; in experiment [2], 0.935; in experiment [3], 0.934.
Regarding CACTCA, the binding signal in experiment [1] was found to be 1.17; in experiment [2] it was 1.21; in experiment [3], 1.14.
Turning to CCACGT, the binding signal amounted to 0.919 in experiment [1], 1.06 in experiment [2] and 0.935 in experiment [3].
Turning to GGCACC, the binding signal in experiment [1] turned out to be 0.784; in experiment [2], 0.789; in experiment [3], 0.793.
Turning to GTTTAG, the binding signal was found to be 0.845 in experiment [1], 0.949 in experiment [2] and 0.902 in experiment [3].
AGTTTG: the binding signal in experiment [1] stood at 0.945; in experiment [2], 0.9; in experiment [3], 0.966.
The matching figures for CTAGGA: 0.987, 0.859 and 0.915.
With GCCAAC, the binding signal in experiment [1] was determined as 0.898; in experiment [2], 0.915; in experiment [3], 0.898.
As to AGCATC, the binding signal in experiment [1] was 0.988; in experiment [2] it was 0.953; in experiment [3], 1.03.
Regarding CCACAG, the binding signal in experiment [1] was 0.999; in experiment [2], 0.863; in experiment [3] it was 0.91.
Consider CATCCA, for which the figures for the binding signal in experiment [1], in experiment [2] and in experiment [3] were 0.994, 0.899 and 0.91, respectively.
The matching figures for TGAAAG: 0.94, 0.98 and 0.958.
For GCAGAA, in that order: 0.814, 0.954 and 0.873.
As to AACCAC, the results for the binding signal in experiment [1], in experiment [2] and in experiment [3] were 1.21, 1.03 and 1.19, respectively.
